Measurements from the supplement of paper PMC8728848.
Some of the results follow.

Key:
Test in all cases: glycan array binding signal (z-score within array); higher = stronger binding
Settings in all cases: glycan notation: IUPAC condensed, linker removed
[1] = target: Neu5Ac(a2-6)Gal(b1-4)GlcNAc(b1-2)Man(a1-3)[GlcNAc(b1-4)][Neu5Ac(a2-6)Gal(b1-4)GlcNAc(b1-2)Man(a1-6)]Man(b1-4)GlcNAc(b1-4)GlcNAc
Procedure, shortened: (§1)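 The Consortium for Functional Glycomics database supplied 3228 glycan arrays, of which those lacking an available protein sequence were dropped. The binding signal, a within-array Z-score, was averaged across arrays of the same protein sequence and across linkers. Negative scores can be read as non-binding.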

[2] = target: Neu5Ac(a2-6)Gal(b1-4)GlcNAc(b1-2)Man(a1-3)[Man(a1-6)]Man(b1-4)GlcNAc(b1-4)GlcNAc
Procedure, shortened: as §1

[3] = target: Neu5Ac(a2-6)Gal(b1-4)GlcNAc(b1-2)Man(a1-3)[Neu5Ac(a2-3)Gal(b1-4)GlcNAc(b1-2)Man(a1-6)]Man(b1-4)GlcNAc(b1-4)GlcNAc
Procedure, shortened: as §1

[4] = target: Neu5Ac(a2-6)Gal(b1-4)GlcNAc(b1-2)Man(a1-3)[Neu5Ac(a2-6)Gal(b1-4)GlcNAc(b1-2)Man(a1-6)]Man(b1-4)GlcNAc(b1-4)GlcNAc
Procedure, shortened: as §1

[5] = target: Neu5Ac(a2-6)Gal(b1-4)GlcNAc(b1-2)Man(a1-3)[Neu5Ac(a2-6)Gal(b1-4)GlcNAc(b1-2)Man(a1-6)]Man(b1-4)GlcNAc(b1-4)[Fuc(a1-6)]GlcNAc
Procedure, shortened: as §1

[6] = target: Neu5Ac(a2-6)Gal(b1-4)GlcNAc(b1-2)Man(a1-6)Man(b1-4)GlcNAc(b1-4)GlcNAc
Procedure, shortened: as §1

[7] = target: Neu5Ac(a2-6)Gal(b1-4)GlcNAc(b1-2)Man(a1-6)[Gal(b1-4)GlcNAc(b1-2)Man(a1-3)]Man(b1-4)GlcNAc(b1-4)GlcNAc
Procedure, shortened: as §1

[8] = target: Neu5Ac(a2-6)Gal(b1-4)GlcNAc(b1-2)Man(a1-6)[GlcNAc(b1-2)Man(a1-3)]Man(b1-4)GlcNAc(b1-4)GlcNAc
Procedure, shortened: as §1

[9] = target: Neu5Ac(a2-6)Gal(b1-4)GlcNAc(b1-2)Man(a1-6)[Man(a1-3)]Man(b1-4)GlcNAc(b1-4)GlcNAc
Procedure, shortened: as §1

[10] = target: Neu5Ac(a2-6)Gal(b1-4)GlcNAc(b1-2)[Neu5Ac(a2-6)Gal(b1-4)GlcNAc(b1-4)]Man(a1-3)[GlcNAc(b1-4)][Neu5Ac(a2-6)Gal(b1-4)GlcNAc(b1-2)[Neu5Ac(a2-6)Gal(b1-4)GlcNAc(b1-6)]Man(a1-6)]Man(b1-4)GlcNAc(b1-4)GlcNAc
Procedure, shortened: as §1

[11] = target: Neu5Ac(a2-6)Gal(b1-4)GlcNAc(b1-2)[Neu5Ac(a2-6)Gal(b1-4)GlcNAc(b1-4)]Man(a1-3)[GlcNAc(b1-4)][Neu5Ac(a2-6)Gal(b1-4)GlcNAc(b1-4)Man(a1-6)]Man(b1-4)GlcNAc(b1-4)GlcNAc
Procedure, shortened: as §1

[12] = target: Neu5Ac(a2-6)Gal(b1-4)GlcNAc(b1-2)[Neu5Ac(a2-6)Gal(b1-4)GlcNAc(b1-6)]Man(a1-6)[Neu5Ac(a2-6)Gal(b1-4)GlcNAc(b1-2)Man(a1-3)][GlcNAc(b1-4)]Man(b1-4)GlcNAc(b1-4)GlcNAc
Procedure, shortened: as §1

[13] = target: Neu5Ac(a2-6)Gal(b1-4)GlcNAc(b1-3)Gal(b1-3)GlcNAc
Procedure, shortened: as §1

[14] = target: Neu5Ac(a2-6)Gal(b1-4)GlcNAc(b1-3)Gal(b1-4)GlcNAc
Procedure, shortened: as §1

[15] = target: Neu5Ac(a2-6)Gal(b1-4)GlcNAc(b1-3)Gal(b1-4)GlcNAc(b1-2)Man(a1-3)[Neu5Ac(a2-6)Gal(b1-4)GlcNAc(b1-3)Gal(b1-4)GlcNAc(b1-2)Man(a1-6)]GalNAc
Procedure, shortened: as §1

[16] = target: Neu5Ac(a2-6)Gal(b1-4)GlcNAc(b1-3)Gal(b1-4)GlcNAc(b1-3)Gal(b1-4)GlcNAc
Procedure, shortened: as §1

[17] = target: Neu5Ac(a2-6)Gal(b1-4)GlcNAc(b1-3)Gal(b1-4)GlcNAc(b1-3)Gal(b1-4)GlcNAc(b1-2)Man(a1-3)[Neu5Ac(a2-6)Gal(b1-4)GlcNAc(b1-3)Gal(b1-4)GlcNAc(b1-3)Gal(b1-4)GlcNAc(b1-2)Man(a1-6)]GalNAc
Procedure, shortened: as §1

[18] = target: Neu5Ac(a2-6)Gal(b1-4)GlcNAc(b1-3)Gal(b1-4)GlcNAc(b1-3)GalNAc
Procedure, shortened: as §1

[19] = target: Neu5Ac(a2-6)Gal(b1-4)GlcNAc(b1-3)Gal(b1-4)GlcNAc(b1-3)[Neu5Ac(a2-6)Gal(b1-4)GlcNAc(b1-3)Gal(b1-4)GlcNAc(b1-6)]GalNAc
Procedure, shortened: as §1

[20] = target: Neu5Ac(a2-6)Gal(b1-4)GlcNAc(b1-3)Gal(b1-4)GlcNAc(b1-6)[Gal(b1-3)]GalNAc
Procedure, shortened: as §1

[21] = target: Neu5Ac(a2-6)Gal(b1-4)GlcNAc(b1-3)Gal(b1-4)[Fuc(a1-3)]GlcNAc(b1-3)Gal(b1-4)[Fuc(a1-3)]GlcNAc
Procedure, shortened: as §1

[22] = target: Neu5Ac(a2-6)Gal(b1-4)GlcNAc(b1-3)GalNAc
Procedure, shortened: as §1

[23] = target: Neu5Ac(a2-6)Gal(b1-4)GlcNAc(b1-3)[Neu5Ac(a2-6)Gal(b1-4)GlcNAc(b1-6)]GalNAc
Procedure, shortened: as §1

[24] = target: Neu5Ac(a2-6)Gal(b1-4)GlcNAc(b1-6)GalNAc
Procedure, shortened: as §1

[25] = target: Neu5Ac(a2-6)Gal(b1-4)GlcNAc(b1-6)[Gal(b1-3)GlcNAc(b1-3)]Gal(b1-4)Glc
Procedure, shortened: as §1

[26] = target: Neu5Ac(a2-6)Gal(b1-4)GlcNAc(b1-6)[Gal(b1-3)]GalNAc
Procedure, shortened: as §1

[27] = target: Neu5Ac(a2-6)Gal(b1-4)GlcNAc6S
Procedure, shortened: as §1

Neu5Ac(a2-6)GalNAc = target: Neu5Ac(a2-6)GalNAc
Procedure, shortened: as §1

[28] = target: Neu5Ac(a2-6)GalNAc(b1-4)GlcNAc
Procedure, shortened: as §1

[29] = target: Neu5Ac(a2-6)GalNAc(b1-4)GlcNAc6S
Procedure, shortened: as §1

B1: BT4246 (Bacteroides thetaiotaomicron), Q89ZX5 (protein)
chain: MGSSHHHHHHENLYFQGHMASDYLDVVPPEQPNIDDAMSSPTRALGFLYSCYGGVSTDLPSAYLGEINSTTDEYVLPYSWNTDGYWGAYAFNTASSTNQDWLWGTTYQYIGQCYLFLQKLENAGSDIASDAEKEQWRAECQFLVAYYHFATLRRYGPIPITDSYIPMDTPTSEYNGRFHFDYCVDWIANQLDEAAKVLPANRTVTNEWGRATSTIAKAVKARLLLYAASPLWNGSFPYPNWQNENFETPGYGKALVSNTYDKSKWERALAACQEALTLATTSGDRELYDDDEYYSRQSLNLPFVPGVADVEDNKEFLKNVMKMRYAVSTRESEGNKEIIWGLSNQFDFYSRYPLRILKKSDGTWHAGYSGVSPTLYTFEHFYTANGKLPEKDLDFTPSSEWFESAGISSREDIIKLNVGREPRFYAWMAFDGGDYGTKFAAGSPLKLEMRNSEMHGYNPSLFNRDHSVTGFLTQKFVDPVTEFYTAGGSTSGTSAPTILFRLAELYLNVAECHAALGNTQEAIDALNPVRERAGIPKLTLADITNNMTIKDWVHNERFVELWNEGHRFFDVRRWAEGAKYFGANKREGLNAEVQSPTFEEFNKRTTVDAPYVWENRMYLNPVFYNEVYKNPQMVQAPGY
For B1, which “glycan array binding signal (z-score)” value [1] is on record?
Its value is 0.288.

What about the “glycan array binding signal (z-score)” value [2] of the same binder?
The value was 0.402.

And the “glycan array binding signal (z-score)” value [3]?
Its value is -0.62.

And the “glycan array binding signal (z-score)” value [4]?
The value was 0.53.

And the “glycan array binding signal (z-score)” value [5]?
Its value is -0.413.

And the “glycan array binding signal (z-score)” value [6]?
The value was 0.416.

What about the “glycan array binding signal (z-score)” value [7] of the same binder?
The value was 2.29.

And the “glycan array binding signal (z-score)” value [8]?
The value was 0.499.

And the “glycan array binding signal (z-score)” value [9]?
Its value is 0.041.

And the “glycan array binding signal (z-score)” value [10]?
The value was -0.648.

What about the “glycan array binding signal (z-score)” value [11] of the same binder?
The value was -0.021.

What about the “glycan array binding signal (z-score)” value [12] of the same binder?
Its value is -0.438.

What about the “glycan array binding signal (z-score)” value [13] of the same binder?
Its value is -1.26.

What about the “glycan array binding signal (z-score)” value [14] of the same binder?
The value was -0.1.

What about the “glycan array binding signal (z-score)” value [15] of the same binder?
Its value is -0.595.

What about the “glycan array binding signal (z-score)” value [16] of the same binder?
The value was 0.534.

What about the “glycan array binding signal (z-score)” value [17] of the same binder?
Its value is 1.07.

What about the “glycan array binding signal (z-score)” value [18] of the same binder?
Its value is -0.813.

And the “glycan array binding signal (z-score)” value [19]?
The value was 3.02.

And the “glycan array binding signal (z-score)” value [20]?
The value was -0.608.

And the “glycan array binding signal (z-score)” value [21]?
The value was -0.754.

What about the “glycan array binding signal (z-score)” value [22] of the same binder?
Its value is -0.976.

And the “glycan array binding signal (z-score)” value [23]?
Its value is 0.296.

And the “glycan array binding signal (z-score)” value [24]?
Its value is -0.644.

What about the “glycan array binding signal (z-score)” value [25] of the same binder?
The value was -1.1.

And the “glycan array binding signal (z-score)” value [26]?
The value was 0.145.

And the “glycan array binding signal (z-score)” value [27]?
The value was 1.19.

What about the “glycan array binding signal (z-score)” value (Neu5Ac(a2-6)GalNAc) of the same binder?
Its value is -0.743.

And the “glycan array binding signal (z-score)” value [28]?
Its value is -0.075.

And the “glycan array binding signal (z-score)” value [29]?
Its value is -2.33.
